Measured values reported in doi:10.1101/142992.
These are yes or no findings as the source states them, for the method shown. Binding seen in cells or lysates may run through a third protein. Binding calls can cover weak binding; strength is not graded here.

Amino acid sequences for entries named in this document (tags omitted). A change or cut given only in a name is not applied to a line headed by its entry.
UniProt P0DPQ6: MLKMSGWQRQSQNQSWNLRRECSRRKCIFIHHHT
UniProt P35638: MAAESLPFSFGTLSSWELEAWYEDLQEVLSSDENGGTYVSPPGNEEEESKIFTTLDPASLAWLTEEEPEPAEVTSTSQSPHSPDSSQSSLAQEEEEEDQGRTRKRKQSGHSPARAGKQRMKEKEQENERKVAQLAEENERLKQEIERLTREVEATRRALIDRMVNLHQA

Biological target: altDDIT3^GFP (human) (UniProt P0DPQ6)
Test: co-IP

Question: “DDIT3^mCherry (from UniProt P35638 1-169)” was tested. Which binding did it give?
Answer: binds
